From PMC13246002
No constants are given. Whether binding was seen depends on the method and setting. In cells and extracts the contact can be indirect. Some entries that bind do so weakly or less than the wild type. Sequences can lack the tags named with a protein.

Legend:
[1] = biological target: T1, Tfb3 C-term-TAP, TFB3(1-11, 238-Stop)-Flag1-TAP (S. cerevisiae) (UniProt Q03290); assay: co-IP; TAP-tagged Tfb3 derivatives precipitated from yeast whole-cell extracts with IgG Sepharose, 1 hr at 4°C, lysis buffer 20 mM HEPES pH 7.6, 10% glycerol, 200 mM KOAc, 1 mM EDTA, 1 mM DTT; beads washed three times; bound proteins immunoblotted
T1 sequence: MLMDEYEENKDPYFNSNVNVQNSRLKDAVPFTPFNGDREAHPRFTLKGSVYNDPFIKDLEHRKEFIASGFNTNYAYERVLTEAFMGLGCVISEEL

[2] = biological target: T2, Tfb3-TAP (full-length Tfb3 with tandem affinity purification tag) (S. cerevisiae) (UniProt Q03290); assay: as above
T2 sequence: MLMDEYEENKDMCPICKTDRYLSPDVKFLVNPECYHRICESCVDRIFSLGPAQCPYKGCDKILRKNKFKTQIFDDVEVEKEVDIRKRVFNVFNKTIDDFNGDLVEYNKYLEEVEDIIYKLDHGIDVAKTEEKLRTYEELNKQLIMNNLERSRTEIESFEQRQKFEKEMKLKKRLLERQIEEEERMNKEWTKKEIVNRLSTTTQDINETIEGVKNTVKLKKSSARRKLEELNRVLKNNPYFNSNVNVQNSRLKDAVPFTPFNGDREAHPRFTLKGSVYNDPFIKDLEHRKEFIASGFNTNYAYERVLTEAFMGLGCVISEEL

Row | Binder | binding [1] | binding [2]
1 | Kin28 (enzyme, UniProt P06242 1-306) MKVNMEYTKEKKVGEGTYAVVYLGCQHSTGRKIAIKEIKTSEFKDGLDMSAIREVKYLQEMQHPNVIELIDIFMAYDNLNLVLEFLPTDLEVVIKDKSILFTPADIKAWMLMTLRGVYHCHRNFILHRDLKPNNLLFSPDGQIKVADFGLARAIPAPHEILTSNVVTRWYRAPELLFGAKHYTSAIDIWSVGVIFAELMLRIPYLPGQNDVDQMEVTFRALGTPTDRDWPEVSSFMTYNKLQIYPPPSRDELRKRFIAASEYALDFMCGMLTMNPQKRWTAVQCLESDYFKELPPPSDPSSIKIRN | binds | binds
2 | Ccl1 (protein, UniProt P37366 1-393) MTDIQLNGKSTLDTPSATMSAKEKEAKLKSADENNKPPNYKRISDDDLYRHSSQYRMWSYTKDQLQEKRVDTNARAIAYIEENLLKFREAHNLTEEEIKVLEAKAIPLTMEEELDLVNFYAKKVQVIAQHLNLPTEVVATAISFFRRFFLENSVMQIDPKSIVHTTIFLACKSENYFISVDSFAQKAKSTRDSVLKFEFKLLESLKFSLLNHHPYKPLHGFFLDIQNVLYGKVDLNYMGQIYDRCKKRITAALLTDVVYFYTPPQITLATLLIEDEALVTRYLETKFPSREGSQESVPGNEKEEPQNDASTTEKNKEKSTESEEYSIDSAKLLTIIRECKSIIEDCKPPSTEEAKKIAAKNYYCQNPSTLIQKLKRKLNGEDTSSTVEKKQKT | binds | binds
3 | Tfb1 (protein, UniProt P32776 1-642) MSHSGAAIFEKVSGIIAINEDVSPAELTWRSTDGDKVHTVVLSTIDKLQATPASSEKMMLRLIGKVDESKKRKDNEGNEVVPKPQRHMFSFNNRTVMDNIKMTLQQIISRYKDADIYEEKRRREESAQHTETPMSSSSVTAGTPTPHLDTPQLNNGAPLINTAKLDDSLSKEKLLTNLKLQQSLLKGNKVLMKVFQETVINAGLPPSEFWSTRIPLLRAFALSTSQKVGPYNVLSTIKPVASSENKVNVNLSREKILNIFENYPIVKKAYTDNVPKNFKEPEFWARFFSSKLFRKLRGEKIMQNDRGDVIIDRYLTLDQEFDRKDDDMLLHPVKKIIDLDGNIQDDPVVRGNRPDFTMQPGVDINGNSDGTVDILKGMNRLSEKMIMALKNEYSRTNLQNKSNITNDEEDEDNDERNELKIDDLNESYKTNYAIIHLKRNAHEKTTDNDAKSSADSIKNADLKVSNQQMLQQLSLVMDNLINKLDLNQVVPNNEVSNKINKRVITAIKINAKQAKHNNVNSALGSFVDNTSQANELEVKSTLPIDLLESCRMLHTTCCEFLKHFYIHFQSGEQKQASTVKKLYNHLKDCIEKLNELFQDVLNGDGESMSNTCTAYLKPVLNSITLATHKYDEYFNEYNNNSN | – | binds
